# Primary screen of a compound library

The values are deposited in ChEMBL (CHEMBL3988442, “University of Dundee, Small-Polar-MMV Screening Library” (2021)).

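Whole-parasite assay of Trypanosoma brucei over 72 hours; the read-out is not stated. Concentration: 10 µM. The record gives no direction; compounds that gave an IC50 in retests scored well above the rest, so higher reads as stronger inhibition. Values scatter widely below zero; nearly all retest evidence comes from the higher of the two concentrations used. Of about 2,700 compounds tested this way, about 14 (0.51%) reached 50% or more in at least one test.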

Results are given as percent effect. How 0% and 100% were set is not recorded. Most values in the screen are low, and negative values occur. Compounds were drawn at random from those tested, without regard to their results.

With c1cncc(-c2noc(CN3CCCC3Cn3cccn3)n2)c1 (centres undefined) the screen gave -5.866%.
With CC(c1cc(F)ccc1F)N(C)Cc1nc2c(cnn2C)c(=O)[nH]1 (centres undefined) the screen gave -62.57%.
With O=C(NCCn1ccnc1)N1CCN(Cc2cccnc2)CC1 the screen gave -36.61%.
With OC(CNCCn1cccn1)c1ccc(Br)cc1 (centres undefined) the screen gave 9.265%.
With CCN1CCN(c2ccc(CNC(=O)Cc3c(C)noc3C)cn2)CC1 the screen gave -9.862%.
With Cc1nc(C)n(CC2CCCN2CC(=O)Nc2c(C)n[nH]c2C)n1 (centres undefined) the screen gave -57.34%.
With O=C(NCCNC(=O)c1scnc1Cl)c1ccccc1Cl the screen gave -20.66%.
With COc1ccccc1COCC(O)CN1CCC(c2ccn[nH]2)CC1 (centres undefined) the screen gave -1.72%.
With CC(=O)N(Cc1ncc(C)o1)C1CCN(Cc2ccccc2C#N)C1 (centres undefined) the screen gave -31.39%.
With Cc1noc(C)c1C(=O)NCc1cccnc1N(C)C the screen gave -25.86%.
With Cc1ccc(C(=O)N2CCN(CC(C)O)CC2)cc1S(C)(=O)=O (centres undefined) the screen gave -2.973%.
With O=C(NCCCn1ccnc1)NCC(c1ccco1)N1CCCCC1 (centres undefined) the screen gave -40.9%.
With CN1CCOC(CNCc2csc(C3CCCC3)n2)C1 (centres undefined) the screen gave -49.15%.
With Cc1nn(C)c(N(C)C)c1CNCc1ccc(Cn2cncn2)cc1 the screen gave -7.979%.
With COC(=O)c1cccn1C1CCN(CCN2C(=O)CCC2=O)CC1 the screen gave -41.49%.
With CCC(O)CN1CCN(C(=O)c2ccc3c(c2)COC3)CC1 (centres undefined) the screen gave -57.45%.
With Cc1cc(C(=O)N2CCCC2c2c(C)nn(C)c2C)no1 (centres undefined) the screen gave 6.149%.
With Cc1ccc(S(=O)(=O)NCc2cccc(C(=O)N3CCCC3)c2)cc1F the screen gave -90.73%.
With O=C(NCCNc1ccc(C(F)(F)F)cn1)c1ccc(F)cc1Cl the screen gave -41.26%.
With Cc1cnn(CC2CN(CCc3ccccn3)CCO2)c1 (centres undefined) the screen gave -0.7463%.
With C1CC(c2nnc(CN3CCCC3c3noc(C4CC4)n3)o2)C1 (centres undefined) the screen gave -54.39%.
With COc1ncccc1CNC(=O)Nc1ccc(N(C)C)nc1 the screen gave -46.13%.
With Cc1cc(NC(=O)CN2CCCC2c2noc(C)n2)n(C)n1 (centres undefined) the screen gave -12.83%.
With COc1ccc(CCNC2CCCN(Cc3noc(C)n3)C2)cc1 (centres undefined) the screen gave 0.6122%.
With CC(C)CC(=O)Nc1cccc(CNCc2cccs2)c1 the screen gave -41.56%.
With Cn1cnc2c1CCN(CCS(=O)(=O)c1ccc(Cl)cc1)C2 the screen gave -10.5%.
With Cn1cc(Cl)cc1C(=O)N1CCN(CCc2cccs2)CC1 the screen gave -14.72%.
With Cc1cccc(C(=O)NCc2ccc(N3CCCCCC3)nc2)n1 the screen gave -19.71%.
With Cc1cnn(CC(C)NCc2csc(-c3cccs3)n2)c1 (centres undefined) the screen gave -5.738%.
With CCc1nc(C2CCCN(C(=O)c3ccc(OC)cc3)C2)no1 (centres undefined) the screen gave -30.69%.
With Cc1noc2ncc(C(=O)NCC3CCS(=O)(=O)C3)cc12 (centres undefined) the screen gave -64.89%.